Source: paper PMC10407749
Results are given in words; binding and its absence hold for the method and conditions named. Some entries that bind do so weakly or less than the wild type. Tags and fused reporters may be left off the sequences shown.

Chains of the proteins cited; added tags and fusions are not shown.
UniProt P26599: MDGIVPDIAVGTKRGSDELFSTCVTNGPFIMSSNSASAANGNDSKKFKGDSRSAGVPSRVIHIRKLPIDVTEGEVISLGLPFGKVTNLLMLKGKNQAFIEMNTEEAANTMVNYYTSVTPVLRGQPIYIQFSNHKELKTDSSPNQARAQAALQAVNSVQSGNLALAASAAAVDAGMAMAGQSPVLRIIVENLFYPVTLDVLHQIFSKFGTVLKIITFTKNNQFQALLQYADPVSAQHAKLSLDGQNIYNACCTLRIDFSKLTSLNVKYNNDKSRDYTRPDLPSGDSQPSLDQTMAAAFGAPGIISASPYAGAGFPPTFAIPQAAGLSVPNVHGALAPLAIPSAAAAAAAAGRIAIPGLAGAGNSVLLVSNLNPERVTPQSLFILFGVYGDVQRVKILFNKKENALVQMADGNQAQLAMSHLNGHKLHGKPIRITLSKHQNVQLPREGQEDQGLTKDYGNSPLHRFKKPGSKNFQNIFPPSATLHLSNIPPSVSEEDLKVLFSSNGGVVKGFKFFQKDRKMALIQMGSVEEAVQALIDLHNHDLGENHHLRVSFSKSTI

Assays:
GST-MARCH8 = molecular target: T1, GST-MARCH8 (UniProt Q5T0T0); test: pull-down; GST affinity isolation (Pierce GST pull-down kit) with GST-MARCH8 or GST-NDP52 and PTBP1 expressed in BL21 (DE3) and purified beforehand, Western blot; both purified
T1 sequence: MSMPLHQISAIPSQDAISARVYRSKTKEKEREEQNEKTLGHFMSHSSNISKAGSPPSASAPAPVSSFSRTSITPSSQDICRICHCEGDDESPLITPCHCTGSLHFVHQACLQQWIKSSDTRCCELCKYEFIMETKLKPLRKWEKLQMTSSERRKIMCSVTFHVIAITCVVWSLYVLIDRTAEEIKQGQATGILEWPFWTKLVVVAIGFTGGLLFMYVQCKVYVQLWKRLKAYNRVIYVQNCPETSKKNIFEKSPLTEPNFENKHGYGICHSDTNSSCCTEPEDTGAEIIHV

GST-NDP52 = molecular target: T2, GST-NDP52 (UniProt Q13137); test: as above
T2 sequence: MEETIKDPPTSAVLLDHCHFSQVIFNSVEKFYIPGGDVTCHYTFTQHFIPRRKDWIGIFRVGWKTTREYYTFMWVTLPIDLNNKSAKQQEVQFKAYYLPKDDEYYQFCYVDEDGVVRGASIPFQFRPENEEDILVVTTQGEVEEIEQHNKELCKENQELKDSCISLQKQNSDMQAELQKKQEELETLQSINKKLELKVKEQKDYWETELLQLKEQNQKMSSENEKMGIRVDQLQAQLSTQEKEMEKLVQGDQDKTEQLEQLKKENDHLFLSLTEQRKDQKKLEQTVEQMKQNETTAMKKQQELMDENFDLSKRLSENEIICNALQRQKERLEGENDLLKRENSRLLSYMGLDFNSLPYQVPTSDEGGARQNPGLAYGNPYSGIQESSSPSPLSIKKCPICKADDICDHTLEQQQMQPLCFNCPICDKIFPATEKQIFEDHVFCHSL

Substance: PTBP1, full length, expressed in E. coli BL21 (DE3) (from UniProt P26599 1-557)
- binding (GST-MARCH8): binds
- binding (GST-NDP52): binds
